# For at least one entry, the source does not settle the construct or the ends of the probe. For part of these data: Negatives hold for the conditions tested.
# What was measured:
# [1] = test system: GST-SlMYB72 (Solanum lycopersicum (tomato)); experiment: competition with a labelled probe; settings: unlabeled competitor about 1 uM (50x) eliminates shift of N1; EMSA with LightShift Chemiluminescent kit (Thermo); about 0.02 uM biotin probe, about 2 ug protein per lane; pH and temperature not stated; recombinant protein; protein details: GST (N-terminal, pGEX-4T-1)
# [2] = test system: GST-SlMYB72 (Solanum lycopersicum (tomato)); experiment: EMSA; settings: about 0.02 uM probe, 2 ug protein; EMSA with LightShift Chemiluminescent kit (Thermo); about 0.02 uM biotin probe, about 2 ug protein per lane; pH and temperature not stated; recombinant protein; protein details: GST (N-terminal, pGEX-4T-1); label: biotin
# [3] = test system: GST; experiment: EMSA; settings: about 0.02 uM probe, 2 ug protein; EMSA with LightShift Chemiluminescent kit (Thermo); about 0.02 uM biotin probe, about 2 ug protein per lane; pH and temperature not stated; recombinant protein; protein details: GST; label: biotin
Sequence,binding result [1],binding result [2],binding result [3]
GTGATATCATATACTGTTGTATTCATTTTG (double strand) [SlCycB2 promoter cold probe],binds,,
GTGATATCATATACTGTTGTATTCATTTTG (double strand) [SlCycB2 promoter probe],,binds,no binding

# Source: article PMC11968270
